PubChem BioAssay AID1259254, NCATS | 2017

- Screen: 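Genome-wide screen for genes that prevent DNA re-replication in cancer cells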 (primary screen)
- Cells: human HCT116 colorectal cancer cells
- Reagent: single siRNA against human genes
- Timing: 3 days
- Detection: 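Nuclei stained with Hoechst and imaged; cell-cycle phase assigned by DNA content; G2 share scaled per plate, non-targeting siRNA 0%, GMNN siRNA 100%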
- Reading the numbers: G2 robust z-score and G2 cells, % of GMNN control: higher = more G2 cells, more excess DNA replication; raw share of cells in G2: higher = larger share of cells with G2 DNA content
- Call rule: 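Active siRNAs have a G2 robust z of 5 or more median absolute deviations over the median, which in these data means about 38% or higher of GMNN control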
This is one part, drawn at random, of about 59,000 reagents. Over the whole deposit, about 1,550 (2.6%) were called active. 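G2 share is only a proxy for re-replication; each gene was hit by three separate siRNAs, and active genes were retested.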 Raw values vary from plate to plate and are shown uncorrected. Entries without a mark were called inactive. Reagents against one gene are numbered here. No sequences are given here. Not stated in the record: the amount of reagent.

no.	Gene	reagent no.	G2 robust z-score	G2 cells, % of GMNN control	raw share of cells in G2 (%)
1	ALAD (aminolevulinate dehydratase)	1	3.11	24.8	13.2
2	ALAD (aminolevulinate dehydratase)	2	-0.502	-0.565	4.87
3	ALAD (aminolevulinate dehydratase)	3	2.74	22.3	12.3
4	LOC729900 (golgin subfamily A member 6-like protein 7)	1	0.0692	3.45	4.44
5	LOC729900 (golgin subfamily A member 6-like protein 7)	2	0.766	8.35	7.38
6	LOC729900 (golgin subfamily A member 6-like protein 7)	3	0.425	5.96	5.23
7	TMCO2 (transmembrane and coiled-coil domains 2)	1	-1.11	-4.88	2.34
8	TMCO2 (transmembrane and coiled-coil domains 2)	2	-0.0894	2.34	3.84
9	TMCO2 (transmembrane and coiled-coil domains 2)	3	-0.204	1.53	3.14
10	CLTA (clathrin light chain A)	1	7.68 (active)	57	25.3
11	CLTA (clathrin light chain A)	2	-0.547	-0.881	4.67
12	CLTA (clathrin light chain A)	3	-0.881	-3.23	2.98
13	SV2C (synaptic vesicle glycoprotein 2C)	1	-1.54	-7.84	3.22
14	SV2C (synaptic vesicle glycoprotein 2C)	2	-0.187	1.65	4.71
15	SV2C (synaptic vesicle glycoprotein 2C)	3	-0.0504	2.61	4.76
16	OLA1 (Obg like ATPase 1)	1	-0.871	-3.16	4.73
17	OLA1 (Obg like ATPase 1)	2	-0.979	-3.92	2.71
18	OLA1 (Obg like ATPase 1)	3	-0.636	-1.51	3.69
19	PIEZO2 (piezo type mechanosensitive ion channel component 2)	1	-0.141	1.98	3.87
20	PIEZO2 (piezo type mechanosensitive ion channel component 2)	2	0.199	4.37	6.48
21	PIEZO2 (piezo type mechanosensitive ion channel component 2)	3	-0.0543	2.59	5.77
22	PIEZO2 (piezo type mechanosensitive ion channel component 2)	4	-1.15	-5.13	1.34
23	PIEZO2 (piezo type mechanosensitive ion channel component 2)	5	-0.502	-0.567	3.43
24	PIEZO2 (piezo type mechanosensitive ion channel component 2)	6	3.02	24.2	12.4
25	LRP3 (LDL receptor related protein 3)	1	11.7 (active)	85	39.2
26	LRP3 (LDL receptor related protein 3)	2	-0.667	-1.73	2.63
27	LRP3 (LDL receptor related protein 3)	3	-1.03	-4.3	3.7
28	ADAT2 (adenosine deaminase tRNA specific 2)	1	0.478	6.33	8.97
29	ADAT2 (adenosine deaminase tRNA specific 2)	2	-0.28	1	5.07
30	ADAT2 (adenosine deaminase tRNA specific 2)	3	0.729	8.1	8.1
31	FAM219B (family with sequence similarity 219 member B)	1	-0.269	1.08	4.77
32	FAM219B (family with sequence similarity 219 member B)	2	-0.558	-0.957	4
33	FAM219B (family with sequence similarity 219 member B)	3	-0.15	1.91	3.64
34	DALRD3 (DALR anticodon binding domain containing 3)	1	0.583	7.07	7.28
35	DALRD3 (DALR anticodon binding domain containing 3)	2	-1.14	-5.02	2.64
36	DALRD3 (DALR anticodon binding domain containing 3)	3	1.62	14.4	12.7
37	THRSP (thyroid hormone responsive)	1	-0.647	-1.58	4.43
38	THRSP (thyroid hormone responsive)	2	-0.372	0.348	4.03
39	THRSP (thyroid hormone responsive)	3	-0.959	-3.78	2.01
40	TSSK1B (testis specific serine kinase 1B)	1	-0.613	-1.35	5.17
41	TSSK1B (testis specific serine kinase 1B)	2	0.988	9.92	8.8
42	TSSK1B (testis specific serine kinase 1B)	3	-0.0213	2.82	4.58
43	RPL29P12 (ribosomal protein L29 pseudogene 12)	1	3.18	25.3	12.9
44	RPL29P12 (ribosomal protein L29 pseudogene 12)	2	-0.317	0.738	3.49
45	RPL29P12 (ribosomal protein L29 pseudogene 12)	3	0.893	9.25	7.01
46	LINC00304 (long independently transcribed non-coding RNA 304)	1	-0.516	-0.663	3.4
47	LINC00304 (long independently transcribed non-coding RNA 304)	2	0.311	5.16	5.04
48	LINC00304 (long independently transcribed non-coding RNA 304)	3	-0.554	-0.934	2.98
49	DBF4 (DBF4-CDC7 kinase regulatory subunit)	1	0.299	5.07	5.48
50	DBF4 (DBF4-CDC7 kinase regulatory subunit)	2	-1.31	-6.24	4.02
51	DBF4 (DBF4-CDC7 kinase regulatory subunit)	3	0.611	7.26	8.85
52	LINC01630 (long independently transcribed non-coding RNA 1630)	1	-0.00637	2.92	4.24
53	LINC01630 (long independently transcribed non-coding RNA 1630)	2	-1.17	-5.27	1.91
54	LINC01630 (long independently transcribed non-coding RNA 1630)	3	-0.41	0.0819	3.34
55	RALGAPA1 (Ral GTPase activating protein catalytic subunit alpha 1)	1	-0.268	1.08	3.97
56	RALGAPA1 (Ral GTPase activating protein catalytic subunit alpha 1)	2	-0.577	-1.09	2.76
57	RALGAPA1 (Ral GTPase activating protein catalytic subunit alpha 1)	3	-0.333	0.623	3.39
58	GATA1 (GATA binding protein 1)	1	0.362	5.51	7.43
59	GATA1 (GATA binding protein 1)	2	1.29	12.1	8.25
60	GATA1 (GATA binding protein 1)	3	-1.16	-5.19	1.22
61	C5orf46 (chromosome 5 open reading frame 46)	1	-1.33	-6.38	1.58
62	C5orf46 (chromosome 5 open reading frame 46)	2	-0.201	1.56	4.08
63	C5orf46 (chromosome 5 open reading frame 46)	3	1.62	14.3	10.8
64	NCOA6 (nuclear receptor coactivator 6)	1	-0.835	-2.91	2.87
65	NCOA6 (nuclear receptor coactivator 6)	2	6.12 (active)	46.1	19.6
66	NCOA6 (nuclear receptor coactivator 6)	3	-0.769	-2.45	5.39
67	PRKD2 (protein kinase D2)	1	-1.1	-4.76	4.11
68	PRKD2 (protein kinase D2)	2	2.08	17.6	11.6
69	PRKD2 (protein kinase D2)	3	2.36	19.6	9.96

7 neighbouring entries already listed, quoted:
no.	Gene	reagent no.	G2 robust z-score	G2 cells, % of GMNN control	raw share of cells in G2 (%)
2	ALAD (aminolevulinate dehydratase)	2	-0.502	-0.565	4.87
3	ALAD (aminolevulinate dehydratase)	3	2.74	22.3	12.3
4	LOC729900 (golgin subfamily A member 6-like protein 7)	1	0.0692	3.45	4.44
5	LOC729900 (golgin subfamily A member 6-like protein 7)	2	0.766	8.35	7.38
6	LOC729900 (golgin subfamily A member 6-like protein 7)	3	0.425	5.96	5.23
7	TMCO2 (transmembrane and coiled-coil domains 2)	1	-1.11	-4.88	2.34
8	TMCO2 (transmembrane and coiled-coil domains 2)	2	-0.0894	2.34	3.84
